# Source: the supplement of paper PMC8728848
# The other results are listed elsewhere or left out.
# B1: SP15308B-bot-339-22-339 (Bacteroides ovatus) (protein)
# chain: NEWEDEQYEQYVSFKAPIASGSDGVTTIYVRYKDNGKVTYQLPIIVSGSTVNSQDRDIHIAVDKDTLKTLNIERFSLYRPELWYTEMEEDKYEFPETVHIPAGSCVELLNIDFNLQDIDMLEKWVLPLTIVDDGSYAYQSHPRKNYAKALLKVVPFNNYSGSYTASSMKVYTYINGKPDTNARTTDKRTGYVVDNNSIFFYAGLINEDMDKDMRKKYKINVHFKEDGTLDMKQDDPSNEMEFELIGTPTYSSTSVMDATRPYLERRYVQIMFEYDFQDFTYGGSGTEVIPIKYRVAGSMTLLRNINTQIPDEDQQIEW
# Tests used:
# Experiment in all cases: glycan array binding signal (z-score within array); higher = stronger binding
# Conditions in all cases: glycan notation: IUPAC condensed, linker removed
# [1] = target: Fuc(a1-2)Gal6S(b1-3)GlcNAc
# In short: (§1)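 From the Consortium for Functional Glycomics database, 3228 arrays were curated, keeping only those whose protein sequence was available. Binding is given as a within-array Z-score averaged across arrays sharing a protein sequence and across linkers. Negative Z-scores can be read as non-binding.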
# [2] = target: Fuc(a1-2)Gal6S(b1-3)GlcNAc6S
# In short: as §1
# [3] = target: Fuc(a1-2)Gal6S(b1-4)Glc
# In short: as §1
# [4] = target: Fuc(a1-2)Gal6S(b1-4)Glc6S
# In short: as §1
# [5] = target: Fuc(a1-2)[Gal(a1-3)]Gal
# In short: as §1
# [6] = target: Fuc(a1-2)[Gal(a1-3)]Gal(b1-3)GalNAc
# In short: as §1
# [7] = target: Fuc(a1-2)[Gal(a1-3)]Gal(b1-3)GalNAc(b1-3)Gal(a1-4)Gal(b1-4)Glc
# In short: as §1
# [8] = target: Fuc(a1-2)[Gal(a1-3)]Gal(b1-3)GlcNAc
# In short: as §1
# [9] = target: Fuc(a1-2)[Gal(a1-3)]Gal(b1-3)GlcNAc(b1-2)Man(a1-3)[Fuc(a1-2)[Gal(a1-3)]Gal(b1-3)GlcNAc(b1-2)Man(a1-6)]Man(b1-4)GlcNAc(b1-4)GlcNAc
# In short: as §1
# [10] = target: Fuc(a1-2)[Gal(a1-3)]Gal(b1-3)GlcNAc(b1-2)Man(a1-3)[Fuc(a1-2)[Gal(a1-3)]Gal(b1-3)GlcNAc(b1-2)Man(a1-6)]Man(b1-4)GlcNAc(b1-4)[Fuc(a1-6)]GlcNAc
# In short: as §1
# [11] = target: Fuc(a1-2)[Gal(a1-3)]Gal(b1-3)GlcNAc(b1-3)GalNAc
# In short: as §1
# [12] = target: Fuc(a1-2)[Gal(a1-3)]Gal(b1-3)GlcNAc(b1-6)GalNAc
# In short: as §1
# [13] = target: Fuc(a1-2)[Gal(a1-3)]Gal(b1-4)Glc
# In short: as §1
# [14] = target: Fuc(a1-2)[Gal(a1-3)]Gal(b1-4)GlcNAc
# In short: as §1
# [15] = target: Fuc(a1-2)[Gal(a1-3)]Gal(b1-4)GlcNAc(b1-2)Man
# In short: as §1
# [16] = target: Fuc(a1-2)[Gal(a1-3)]Gal(b1-4)GlcNAc(b1-2)Man(a1-3)[Fuc(a1-2)[Gal(a1-3)]Gal(b1-4)GlcNAc(b1-2)Man(a1-6)]Man(b1-4)GlcNAc(b1-4)GlcNAc
# In short: as §1
# [17] = target: Fuc(a1-2)[Gal(a1-3)]Gal(b1-4)GlcNAc(b1-2)Man(a1-3)[Fuc(a1-2)[Gal(a1-3)]Gal(b1-4)GlcNAc(b1-2)Man(a1-6)]Man(b1-4)GlcNAc(b1-4)[Fuc(a1-6)]GlcNAc
# In short: as §1
# [18] = target: Fuc(a1-2)[Gal(a1-3)]Gal(b1-4)GlcNAc(b1-3)GalNAc
# In short: as §1
# [19] = target: Fuc(a1-2)[Gal(a1-3)]Gal(b1-4)GlcNAc(b1-3)[Fuc(a1-2)[Gal(a1-3)]Gal(b1-4)GlcNAc(b1-6)]GalNAc
# In short: as §1
# [20] = target: Fuc(a1-2)[Gal(a1-3)]Gal(b1-4)GlcNAc(b1-6)GalNAc
# In short: as §1
# [21] = target: Fuc(a1-2)[Gal(a1-3)]Gal(b1-4)[Fuc(a1-3)]Glc
# In short: as §1
# [22] = target: Fuc(a1-2)[Gal(a1-3)]Gal(b1-4)[Fuc(a1-3)]GlcNAc
# In short: as §1
# [23] = target: Fuc(a1-2)[Gal(a1-3)]Gal(b1-4)[Fuc(a1-3)]GlcNAc(b1-3)GalNAc
# In short: as §1
# [24] = target: Fuc(a1-2)[Gal(a1-4)]Gal(b1-4)GlcNAc
# In short: as §1
# [25] = target: Fuc(a1-2)[GalNAc(a1-3)]Gal
# In short: as §1
# [26] = target: Fuc(a1-2)[GalNAc(a1-3)]Gal(b1-3)GalNAc(a1-3)[Fuc(a1-2)]Gal(b1-4)GlcNAc
# In short: as §1
# [27] = target: Fuc(a1-2)[GalNAc(a1-3)]Gal(b1-3)GalNAc(b1-3)Gal(a1-4)Gal(b1-4)Glc
# In short: as §1
# [28] = target: Fuc(a1-2)[GalNAc(a1-3)]Gal(b1-3)GlcNAc
# In short: as §1
# [29] = target: Fuc(a1-2)[GalNAc(a1-3)]Gal(b1-3)GlcNAc(b1-2)Man(a1-3)[Fuc(a1-2)[GalNAc(a1-3)]Gal(b1-3)GlcNAc(b1-2)Man(a1-6)]Man(b1-4)GlcNAc(b1-4)GlcNAc
# In short: as §1
# [30] = target: Fuc(a1-2)[GalNAc(a1-3)]Gal(b1-3)GlcNAc(b1-2)Man(a1-3)[Fuc(a1-2)[GalNAc(a1-3)]Gal(b1-3)GlcNAc(b1-2)Man(a1-6)]Man(b1-4)GlcNAc(b1-4)[Fuc(a1-6)]GlcNAc
# In short: as §1
# [31] = target: Fuc(a1-2)[GalNAc(a1-3)]Gal(b1-3)GlcNAc(b1-3)GalNAc
# In short: as §1
# [32] = target: Fuc(a1-2)[GalNAc(a1-3)]Gal(b1-3)GlcNAc(b1-6)GalNAc
# In short: as §1
# [33] = target: Fuc(a1-2)[GalNAc(a1-3)]Gal(b1-4)Glc
# In short: as §1
# [34] = target: Fuc(a1-2)[GalNAc(a1-3)]Gal(b1-4)GlcNAc
# In short: as §1
# [35] = target: Fuc(a1-2)[GalNAc(a1-3)]Gal(b1-4)GlcNAc(b1-2)Man
# In short: as §1
# [36] = target: Fuc(a1-2)[GalNAc(a1-3)]Gal(b1-4)GlcNAc(b1-2)Man(a1-3)[Fuc(a1-2)[GalNAc(a1-3)]Gal(b1-4)GlcNAc(b1-2)Man(a1-6)]Man(b1-4)GlcNAc(b1-4)GlcNAc
# In short: as §1
# [37] = target: Fuc(a1-2)[GalNAc(a1-3)]Gal(b1-4)GlcNAc(b1-2)Man(a1-3)[Fuc(a1-2)[GalNAc(a1-3)]Gal(b1-4)GlcNAc(b1-2)Man(a1-6)]Man(b1-4)GlcNAc(b1-4)[Fuc(a1-6)]GlcNAc
# In short: as §1
# [38] = target: Fuc(a1-2)[GalNAc(a1-3)]Gal(b1-4)GlcNAc(b1-3)Gal(b1-4)GlcNAc
# In short: as §1
# [39] = target: Fuc(a1-2)[GalNAc(a1-3)]Gal(b1-4)GlcNAc(b1-3)Gal(b1-4)GlcNAc(b1-3)Gal(b1-4)GlcNAc
# In short: as §1
# [40] = target: Fuc(a1-2)[GalNAc(a1-3)]Gal(b1-4)GlcNAc(b1-3)GalNAc
# In short: as §1
# [41] = target: Fuc(a1-2)[GalNAc(a1-3)]Gal(b1-4)GlcNAc(b1-3)[Fuc(a1-2)[GalNAc(a1-3)]Gal(b1-4)GlcNAc(b1-6)]GalNAc
# In short: as §1
# [42] = target: Fuc(a1-2)[GalNAc(a1-3)]Gal(b1-4)GlcNAc(b1-6)GalNAc
# In short: as §1
# [43] = target: Fuc(a1-2)[GalNAc(a1-3)]Gal(b1-4)[Fuc(a1-3)]GlcNAc
# In short: as §1
# [44] = target: Fuc(a1-2)[GalNAc(a1-3)]Gal(b1-4)[Fuc(a1-3)]GlcNAc(b1-3)GalNAc
# In short: as §1
# [45] = target: Fuc(a1-2)[GalNAc(a1-4)]Gal(b1-4)GlcNAc
# In short: as §1
binder,measurement,setting,value
B1,glycan array binding signal (z-score),[1],-0.658
same,glycan array binding signal (z-score),[2],0.853
same,glycan array binding signal (z-score),[3],0.252
same,glycan array binding signal (z-score),[4],-0.011
same,glycan array binding signal (z-score),[5],-0.108
same,glycan array binding signal (z-score),[6],-0.374
same,glycan array binding signal (z-score),[7],-0.087
same,glycan array binding signal (z-score),[8],-0.205
same,glycan array binding signal (z-score),[9],0.038
same,glycan array binding signal (z-score),[10],-0.387
same,glycan array binding signal (z-score),[11],-0.829
same,glycan array binding signal (z-score),[12],-0.081
same,glycan array binding signal (z-score),[13],-0.6
same,glycan array binding signal (z-score),[14],-0.255
same,glycan array binding signal (z-score),[15],0.303
same,glycan array binding signal (z-score),[16],0.699
same,glycan array binding signal (z-score),[17],0.241
same,glycan array binding signal (z-score),[18],-0.515
same,glycan array binding signal (z-score),[19],0.442
same,glycan array binding signal (z-score),[20],-0.332
same,glycan array binding signal (z-score),[21],-0.153
same,glycan array binding signal (z-score),[22],-0.171
same,glycan array binding signal (z-score),[23],0.522
same,glycan array binding signal (z-score),[24],-0.037
same,glycan array binding signal (z-score),[25],0.504
same,glycan array binding signal (z-score),[26],0.069
same,glycan array binding signal (z-score),[27],-0.502
same,glycan array binding signal (z-score),[28],-0.033
same,glycan array binding signal (z-score),[29],-0.48
same,glycan array binding signal (z-score),[30],-0.323
same,glycan array binding signal (z-score),[31],-0.03
same,glycan array binding signal (z-score),[32],-0.617
same,glycan array binding signal (z-score),[33],-0.333
same,glycan array binding signal (z-score),[34],-0.431
same,glycan array binding signal (z-score),[35],-0.453
same,glycan array binding signal (z-score),[36],0.668
same,glycan array binding signal (z-score),[37],-0.388
same,glycan array binding signal (z-score),[38],-0.369
same,glycan array binding signal (z-score),[39],-0.189
same,glycan array binding signal (z-score),[40],-0.7
same,glycan array binding signal (z-score),[41],-0.315
same,glycan array binding signal (z-score),[42],-0.88
same,glycan array binding signal (z-score),[43],0.129
same,glycan array binding signal (z-score),[44],0.347
same,glycan array binding signal (z-score),[45],0.551

# Eleven entries from above, as tab-separated lines.
binder	measurement	setting	value
B1	glycan array binding signal (z-score)	[2]	0.853
same	glycan array binding signal (z-score)	[12]	-0.081
same	glycan array binding signal (z-score)	[24]	-0.037
same	glycan array binding signal (z-score)	[26]	0.069
same	glycan array binding signal (z-score)	[28]	-0.033
same	glycan array binding signal (z-score)	[29]	-0.48
same	glycan array binding signal (z-score)	[31]	-0.03
same	glycan array binding signal (z-score)	[35]	-0.453
same	glycan array binding signal (z-score)	[37]	-0.388
same	glycan array binding signal (z-score)	[38]	-0.369
same	glycan array binding signal (z-score)	[44]	0.347
